Test results from patent US20160090556A1, “PRODUCTS COMPRISING MALODOR REDUCTION MATERIALS” (The Procter & Gamble Company, priority 2014, published 2016).

Key:
[1] = Melamine formaldehyde PMC leakage; conditions: for Comment Code: Melamine formaldehyde PMC leakage: code letter J
[2] = Melamine formaldehyde PMC Headspace Response Ratio; conditions: for Comment Code: Melamine formaldehyde PMC Headspace Response Ratio: code letter I
[3] = class code letter within Comment Code

CC12CCC(C(=O)C1=O)C2(C)C (stereo not shown) [Material 587]
Melamine formaldehyde PMC leakage (Comment Code J) [1]: J (Melamine formaldehyde PMC leakage less than or equal to 5%) | Melamine formaldehyde PMC Headspace Response Ratio (Comment Code I) [2]: I (Melamine formaldehyde PMC Headspace Response Ratio greater than or equal to 10)

CC(=O)OC1CC2CCC1(C)C2(C)C (stereo not shown) [Material 231]
Melamine formaldehyde PMC leakage (Comment Code J) [1, 3]: J (Melamine formaldehyde PMC leakage less than or equal to 5%) | Melamine formaldehyde PMC Headspace Response Ratio (Comment Code I) [2, 3]: I (Melamine formaldehyde PMC Headspace Response Ratio greater than or equal to 10)

CCC(C)CCCC(C)C=O (stereo not shown) [Material 866]
Melamine formaldehyde PMC leakage (Comment Code J) [1]: J (Melamine formaldehyde PMC leakage less than or equal to 5%) | Melamine formaldehyde PMC Headspace Response Ratio (Comment Code I) [2]: I (Melamine formaldehyde PMC Headspace Response Ratio greater than or equal to 10)

CC(O)CCC1C(C)CCCC1(C)C (stereo not shown) [Material 1052]
Comment Code: Melamine formaldehyde PMC leakage [1]: J (Melamine formaldehyde PMC leakage less than or equal to 5%) | Comment Code: Melamine formaldehyde PMC Headspace Response Ratio [2]: I (Melamine formaldehyde PMC Headspace Response Ratio greater than or equal to 10)

C=CC(C)CCCC(C)(C)O (stereo not shown) [Material 437]
Comment Code: Melamine formaldehyde PMC leakage [1]: J (Melamine formaldehyde PMC leakage less than or equal to 5%) | Comment Code: Melamine formaldehyde PMC Headspace Response Ratio [2]: I (Melamine formaldehyde PMC Headspace Response Ratio greater than or equal to 10)

CCC12CC3CC1C2C3OC (stereo not shown) [Material 65]
Melamine formaldehyde PMC leakage (Comment Code J) [1, 3]: J (Melamine formaldehyde PMC leakage less than or equal to 5%) | Melamine formaldehyde PMC Headspace Response Ratio (Comment Code I) [2, 3]: I (Melamine formaldehyde PMC Headspace Response Ratio greater than or equal to 10)

C=CC1(C)CCC(C(=C)C)O1 (stereo not shown) [Material 786]
Melamine formaldehyde PMC leakage (Comment Code J) [1]: J (Melamine formaldehyde PMC leakage less than or equal to 5%) | Melamine formaldehyde PMC Headspace Response Ratio (Comment Code I) [2]: I (Melamine formaldehyde PMC Headspace Response Ratio greater than or equal to 10)

C=C(C)C1CC=C(C)CC1 (stereo not shown) [Material 424]
Melamine formaldehyde PMC leakage (Comment Code J) [1, 3]: J (Melamine formaldehyde PMC leakage less than or equal to 5%) | Melamine formaldehyde PMC Headspace Response Ratio (Comment Code I) [2, 3]: I (Melamine formaldehyde PMC Headspace Response Ratio greater than or equal to 10)

CC(OC=O)C1CCCC(C)(C)C1 (stereo not shown) [Material 662]
Comment Code: Melamine formaldehyde PMC leakage [1]: J (Melamine formaldehyde PMC leakage less than or equal to 5%) | Comment Code: Melamine formaldehyde PMC Headspace Response Ratio [2]: I (Melamine formaldehyde PMC Headspace Response Ratio greater than or equal to 10)

CCCCCCC1(C)CCC(=O)O1 (stereo not shown) [Material 177]
Melamine formaldehyde PMC leakage (Comment Code J) [1, 3]: J (Melamine formaldehyde PMC leakage less than or equal to 5%) | Melamine formaldehyde PMC Headspace Response Ratio (Comment Code I) [2, 3]: I (Melamine formaldehyde PMC Headspace Response Ratio greater than or equal to 10)

CC(C)=C1CCC(C)(O)CC1 (stereo not shown) [Material 318]
Melamine formaldehyde PMC leakage (Comment Code J) [1, 3]: J (Melamine formaldehyde PMC leakage less than or equal to 5%) | Melamine formaldehyde PMC Headspace Response Ratio (Comment Code I) [2, 3]: I (Melamine formaldehyde PMC Headspace Response Ratio greater than or equal to 10)

C=C(C)C1CC=C(CO)CC1 (stereo not shown) [Material 948]
Melamine formaldehyde PMC leakage (Comment Code J) [1]: J (Melamine formaldehyde PMC leakage less than or equal to 5%) | Melamine formaldehyde PMC Headspace Response Ratio (Comment Code I) [2]: I (Melamine formaldehyde PMC Headspace Response Ratio greater than or equal to 10)

C=C(C)[C@@H]1CC[C@@H](C)C(=O)C1 (relative stereo) [Material 1081]
Comment Code: Melamine formaldehyde PMC leakage [1]: J (Melamine formaldehyde PMC leakage less than or equal to 5%) | Comment Code: Melamine formaldehyde PMC Headspace Response Ratio [2]: I (Melamine formaldehyde PMC Headspace Response Ratio greater than or equal to 10)

C=C(C)C1CCC(C)C(O)C1 (stereo not shown) [Material 445]
Melamine formaldehyde PMC leakage (Comment Code J) [1, 3]: J (Melamine formaldehyde PMC leakage less than or equal to 5%) | Melamine formaldehyde PMC Headspace Response Ratio (Comment Code I) [2, 3]: I (Melamine formaldehyde PMC Headspace Response Ratio greater than or equal to 10)

CCC(C)CCC(C)(CC)OC(C)=O (stereo not shown) [Material 821]
Melamine formaldehyde PMC leakage (Comment Code J) [1]: J (Melamine formaldehyde PMC leakage less than or equal to 5%) | Melamine formaldehyde PMC Headspace Response Ratio (Comment Code I) [2]: I (Melamine formaldehyde PMC Headspace Response Ratio greater than or equal to 10)

CC(C)=CCCC(C)CC=O (stereo not shown) [Material 518]
Comment Code: Melamine formaldehyde PMC leakage [1]: J (Melamine formaldehyde PMC leakage less than or equal to 5%) | Comment Code: Melamine formaldehyde PMC Headspace Response Ratio [2]: I (Melamine formaldehyde PMC Headspace Response Ratio greater than or equal to 10)

C=C(C)C1CCC(C)CC1O (stereo not shown) [Material 193]
Melamine formaldehyde PMC leakage (Comment Code J) [1, 3]: J (Melamine formaldehyde PMC leakage less than or equal to 5%) | Melamine formaldehyde PMC Headspace Response Ratio (Comment Code I) [2, 3]: I (Melamine formaldehyde PMC Headspace Response Ratio greater than or equal to 10)

CC12CCC(C1)C(C)(C)C2O (stereo not shown) [Material 366]
Comment Code: Melamine formaldehyde PMC leakage [1]: J (Melamine formaldehyde PMC leakage less than or equal to 5%) | Comment Code: Melamine formaldehyde PMC Headspace Response Ratio [2]: I (Melamine formaldehyde PMC Headspace Response Ratio greater than or equal to 10)

CC(=O)OC1C2(C)CCC(C2)C1(C)C (stereo not shown) [Material 878]
Melamine formaldehyde PMC leakage (Comment Code J) [1]: J (Melamine formaldehyde PMC leakage less than or equal to 5%) | Melamine formaldehyde PMC Headspace Response Ratio (Comment Code I) [2]: I (Melamine formaldehyde PMC Headspace Response Ratio greater than or equal to 10)

CC/C(CC(C)CC)=N/O (stereo not shown) [Material 1040]
Comment Code: Melamine formaldehyde PMC leakage [1]: J (Melamine formaldehyde PMC leakage less than or equal to 5%) | Comment Code: Melamine formaldehyde PMC Headspace Response Ratio [2]: I (Melamine formaldehyde PMC Headspace Response Ratio greater than or equal to 10)

CC(C)c1ccc(CO)cc1 [Material 491]
Melamine formaldehyde PMC leakage (Comment Code J) [1, 3]: J (Melamine formaldehyde PMC leakage less than or equal to 5%) | Melamine formaldehyde PMC Headspace Response Ratio (Comment Code I) [2, 3]: I (Melamine formaldehyde PMC Headspace Response Ratio greater than or equal to 10)

C=C(C)C1CCC2(C)OC2C1 (stereo not shown) [Material 527]
Melamine formaldehyde PMC leakage (Comment Code J) [1, 3]: J (Melamine formaldehyde PMC leakage less than or equal to 5%) | Melamine formaldehyde PMC Headspace Response Ratio (Comment Code I) [2, 3]: I (Melamine formaldehyde PMC Headspace Response Ratio greater than or equal to 10)

CC1CC(=O)CC(C)(C)C1 (stereo not shown) [Material 439]
Comment Code: Melamine formaldehyde PMC leakage [1]: J (Melamine formaldehyde PMC leakage less than or equal to 5%) | Comment Code: Melamine formaldehyde PMC Headspace Response Ratio [2]: I (Melamine formaldehyde PMC Headspace Response Ratio greater than or equal to 10)

C=C(C)C1CCC(C)C(=O)C1 (stereo not shown) [Material 419]
Comment Code: Melamine formaldehyde PMC leakage [1]: J (Melamine formaldehyde PMC leakage less than or equal to 5%) | Comment Code: Melamine formaldehyde PMC Headspace Response Ratio [2]: I (Melamine formaldehyde PMC Headspace Response Ratio greater than or equal to 10)

C=C(C)C1CC=C(C)C(OC(C)=O)C1 (stereo not shown) [Material 577]
Melamine formaldehyde PMC leakage (Comment Code J) [1]: J (Melamine formaldehyde PMC leakage less than or equal to 5%) | Melamine formaldehyde PMC Headspace Response Ratio (Comment Code I) [2]: I (Melamine formaldehyde PMC Headspace Response Ratio greater than or equal to 10)

CCOC(=O)C1C2C=CC(C2)C1C(C)C (stereo not shown) [Material 280]
Melamine formaldehyde PMC leakage (Comment Code J) [1, 3]: J (Melamine formaldehyde PMC leakage less than or equal to 5%) | Melamine formaldehyde PMC Headspace Response Ratio (Comment Code I) [2, 3]: I (Melamine formaldehyde PMC Headspace Response Ratio greater than or equal to 10)

CCC(C)CC(CC)CCCC(C)O (stereo not shown) [Material 779]
Comment Code: Melamine formaldehyde PMC leakage [1]: J (Melamine formaldehyde PMC leakage less than or equal to 5%) | Comment Code: Melamine formaldehyde PMC Headspace Response Ratio [2]: I (Melamine formaldehyde PMC Headspace Response Ratio greater than or equal to 10)

CCCCCCC1OC(=O)CC1C (stereo not shown) [Material 941]
Melamine formaldehyde PMC leakage (Comment Code J) [1]: J (Melamine formaldehyde PMC leakage less than or equal to 5%) | Melamine formaldehyde PMC Headspace Response Ratio (Comment Code I) [2]: I (Melamine formaldehyde PMC Headspace Response Ratio greater than or equal to 10)

CCCCCC1C(=O)CCC1C (stereo not shown) [Material 1053]
Melamine formaldehyde PMC leakage (Comment Code J) [1]: J (Melamine formaldehyde PMC leakage less than or equal to 5%) | Melamine formaldehyde PMC Headspace Response Ratio (Comment Code I) [2]: I (Melamine formaldehyde PMC Headspace Response Ratio greater than or equal to 10)

O=CC1CCC2C3CCC(C3)C12 (stereo not shown) [Material 130]
Melamine formaldehyde PMC leakage (Comment Code J) [1, 3]: J (Melamine formaldehyde PMC leakage less than or equal to 5%) | Melamine formaldehyde PMC Headspace Response Ratio (Comment Code I) [2, 3]: I (Melamine formaldehyde PMC Headspace Response Ratio greater than or equal to 10)

CC(=O)OC1CC2CCC1(C)C2(C)C (stereo not shown) [Material 604]
Melamine formaldehyde PMC leakage (Comment Code J) [1]: J (Melamine formaldehyde PMC leakage less than or equal to 5%) | Melamine formaldehyde PMC Headspace Response Ratio (Comment Code I) [2]: I (Melamine formaldehyde PMC Headspace Response Ratio greater than or equal to 10)

C=CC(C)=CCCC(C)(C)O [Material 43]
Melamine formaldehyde PMC leakage (Comment Code J) [1, 3]: J (Melamine formaldehyde PMC leakage less than or equal to 5%) | Melamine formaldehyde PMC Headspace Response Ratio (Comment Code I) [2, 3]: I (Melamine formaldehyde PMC Headspace Response Ratio greater than or equal to 10)

CC(C)CCOC(=O)C(C)C [Material 239]
Comment Code: Melamine formaldehyde PMC leakage [1]: J (Melamine formaldehyde PMC leakage less than or equal to 5%) | Comment Code: Melamine formaldehyde PMC Headspace Response Ratio [2]: I (Melamine formaldehyde PMC Headspace Response Ratio greater than or equal to 10)

CCOC(=O)[C@@H]1[C@@H](C)CCCC1(C)C [Material 1058]
Comment Code: Melamine formaldehyde PMC leakage [1]: J (Melamine formaldehyde PMC leakage less than or equal to 5%) | Comment Code: Melamine formaldehyde PMC Headspace Response Ratio [2]: I (Melamine formaldehyde PMC Headspace Response Ratio greater than or equal to 10)

CC1CCC2C(C1)OC(=O)C2C (stereo not shown) [Material 179]
Melamine formaldehyde PMC leakage (Comment Code J) [1, 3]: J (Melamine formaldehyde PMC leakage less than or equal to 5%) | Melamine formaldehyde PMC Headspace Response Ratio (Comment Code I) [2, 3]: I (Melamine formaldehyde PMC Headspace Response Ratio greater than or equal to 10)

C=C(C)C1CCC(C)C(OC(C)=O)C1 (stereo not shown) [Material 444]
Melamine formaldehyde PMC leakage (Comment Code J) [1, 3]: J (Melamine formaldehyde PMC leakage less than or equal to 5%) | Melamine formaldehyde PMC Headspace Response Ratio (Comment Code I) [2, 3]: I (Melamine formaldehyde PMC Headspace Response Ratio greater than or equal to 10)

CC(C)CCCC(C)CCO (stereo not shown) [Material 820]
Comment Code: Melamine formaldehyde PMC leakage [1]: J (Melamine formaldehyde PMC leakage less than or equal to 5%) | Comment Code: Melamine formaldehyde PMC Headspace Response Ratio [2]: I (Melamine formaldehyde PMC Headspace Response Ratio greater than or equal to 10)

CC(C)(C)C1CCCCC1O (stereo not shown) [Material 1122]
Comment Code: Melamine formaldehyde PMC leakage [1]: J (Melamine formaldehyde PMC leakage less than or equal to 5%) | Comment Code: Melamine formaldehyde PMC Headspace Response Ratio [2]: I (Melamine formaldehyde PMC Headspace Response Ratio greater than or equal to 10)

Like-named read-outs stand apart in the source and are kept apart here. Some entries repeat one wording, which the source may state once for all of them.
